# Data reported in PubChem BioAssay AID504834 (National Center for Advancing Translational Sciences (NCATS), 2011).
# The whole screen tested about 320,000 compounds, of which about 22,000 (6.9%) were called active. Inconclusive means that the source gave no clear call. Such entries were picked first, then a sample of the others. Calls follow the shape of the dose curve; as a rule, active = well fitted inhibition curve with a large enough effect; inconclusive = small, poorly fitted or top-dose-only effect, or another doubt; inactive = no such curve, though single readings can be large or run the other way. Potencies beside an inconclusive call are fits to weak or partial responses and may not hold up. Some compounds were tested as several samples or in several runs, with calls that do not always agree.
# Test: Primary qHTS for delayed death inhibitors of the malarial parasite plastid, 96 hour incubation
# Details: P. falciparum luciferase reporter growth; series mostly up to 28.7 µM; activity change, negative = inhibition: at the top concentration
# Summary of the method: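 Two parasite generations (96 h, 37 C, 5% CO2) of compound exposure in infected erythrocytes (0.05% parasitemia, 2% hematocrit). Luciferase-reporter P. falciparum; decreased luminescence indicates inhibited growth, aimed at apicoplast-acting delayed death.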
# % is scaled to controls: 0 for no effect and ±100 for the full control effect; potency is read from the fitted curve at half-maximal effect.
Structure (SMILES),"activity change, negative = inhibition",Potency
OCc1cccc(Nc2ncnc3sc4c(c23)CCCCC4)c1,inactive: -20.4%,–
Cc1ccccc1Cn1c(=O)n(C)c(=O)c2sccc21,–,"inconclusive: 10.4 µM [inhibitor, single point]"
CCc1nnc(NC(=O)c2ccc(S(=O)(=O)N(CC)CC)cc2)s1,inactive: 22.6%,–
Cc1ccc(NC(=O)CCNS(=O)(=O)c2ccccc2)cc1S(=O)(=O)N1CCOCC1,–,"inconclusive: 9.28 µM [inhibitor, partial curve, poor fit]"
Oc1ccc(Cc2ncc(C(F)(F)F)cc2Cl)cc1,–,"inconclusive: 2.62 µM [inhibitor, partial curve, poor fit]"
CCOC(=O)C1=C(C)N(c2ccccc2)C(=O)/C1=C\c1ccc(O)c(OC)c1,–,"inconclusive: 2.08 µM [inhibitor, full curve, poor fit]"
CC(C)C[C@H](NC(=O)OC(C)(C)C)c1n[nH]c(=S)n1N,inactive: 17.9%,–
O=C(CSc1nc2ccccc2c(=O)n1-c1ccc(Cl)cc1)c1ccco1,inactive: -0.483% [at 5.75 µM],–
Cc1ccc2nc(N3CCOCC3)c(C=O)c(=O)n2c1,inactive: 0.773%,–
CC1(C)NC(=O)N(CC(=O)N2CCN(c3ccc([N+](=O)[O-])cc3)CC2)C1=O,–,"inconclusive: 0.0415 µM [inhibitor, full curve]"
CCOc1ccc(S(=O)(=O)n2ccnc2)c2ccccc12,–,"inconclusive: 8.28 µM [inhibitor, partial curve, poor fit]"
O=C(CNC1CCCC1)Nc1ccc(S(=O)(=O)N2CCCCC2)cc1,–,"inconclusive: 3.7 µM [inhibitor, full curve, poor fit]"
Cc1ccc2c(c1)COc1c3ccc(C(=O)O)cc3nn1-2,inactive: 97.2%,–
CCOCc1c(C(=O)NC2=Nc3ccccc3NC(CC)=C2C(=O)OCC)oc2ccccc12,–,"inconclusive: 10.4 µM [inhibitor, partial curve, poor fit]"
CCOC(=O)c1c(C)[nH]c(C)c1C(=O)COC(=O)c1ccccc1O,–,"inconclusive: 18.5 µM [inhibitor, single point]"
Cc1oc(-c2cccs2)nc1CN1CCN(CC(C)C)C(CCO)C1 (stereo not drawn),–,active: 1.85 µM
CCOC(=O)COc1ccc(S(=O)(=O)NCC2CCCO2)cc1 (stereo not drawn),–,"inconclusive: 4.65 µM [inhibitor, partial curve]"
COc1cccc(C(=O)OCCCN(C)C)c1,inactive: 32.4%,–
Cc1ccc(C)c(S(=O)(=O)N2CCN(C(=O)CCNS(=O)(=O)c3ccc(C)c(C)c3)CC2)c1,–,"inconclusive: 18.5 µM [inhibitor, single point]"
O=C(C1CCCO1)N(c1cccc(Cl)c1)C1C=CS(=O)(=O)C1 (stereo not drawn),–,"inconclusive: 5.86 µM [inhibitor, partial curve, poor fit]"
Cc1ccc(CN2C(=O)N/C(=C\c3ccc(-c4ccc(C(=O)O)cc4C)o3)C2=O)cc1,–,"inconclusive: 4.65 µM [inhibitor, partial curve]"
COc1ccc(C2c3c(ncn(CCCO)c3=N)Oc3ccc4ccccc4c32)cc1 (stereo not drawn),–,"inconclusive: 1.65 µM [inhibitor, full curve]"
O=C(COC(=O)c1ccccc1S(=O)(=O)N1CCCCC1)NCC(F)(F)F,–,active: 13.1 µM
Cn1c(=O)c2c(O)c(C=Nc3ccc(F)cc3)c(=O)n(C)c2n(C)c1=O,inactive: 35.3%,–
COCCN(C(=O)CSc1nnc(-c2ccccc2C)n1C)c1c(N)n(Cc2ccccc2)c(=O)[nH]c1=O,inactive: -0.181%,–

Structure (SMILES),"activity change, negative = inhibition",Potency
O=C(NCc1ccc(N2CCCC2=O)cc1)Nc1cccc2ccccc12,–,"inconclusive: 0.0029 µM [inhibitor, full curve, poor fit]"
S=c1[nH]nc(-c2ccn[nH]2)n1-c1ccccc1Cl,inactive: -2.23%,–
CCCCn1c(SCc2nc3ccccc3s2)nc2cc(S(N)(=O)=O)ccc21,–,"inconclusive: 9.28 µM [inhibitor, single point]"
CC(Sc1nc(-c2ccccc2)cc(C(F)(F)F)n1)C(=O)NCCN1CCOCC1 (stereo not drawn),–,"inconclusive: 2.62 µM [inhibitor, single point]"
COCCOCC(O)CN1CCN(c2ccccc2)CC1 (stereo not drawn),–,"inconclusive: 10.4 µM [inhibitor, partial curve]"
CCCCOc1ccc(C(=O)NCC(=O)NCC(c2ccc(OC)cc2)N2CCCC2)cc1 (stereo not drawn),–,"inconclusive: 9.28 µM [inhibitor, single point]"
CC1CCCCN1C(=O)CSc1nnc(-c2ccc(Cl)s2)o1 (stereo not drawn),inactive: 36.4%,–
COc1ccccc1CNS(=O)(=O)c1ccc2c(c1)CC(C)N2C(=O)C1CCC1 (stereo not drawn),inactive: -21.4%,–
O=C(Nc1ccc(-n2cc(Cl)cn2)cc1)c1ccncc1,inactive: -11.9%,–
Cn1cccc1/C=N\NC(=O)c1cncc(Br)c1,inactive: 2.06%,–
CCC(=O)c1ccc(N2CCN(C(=O)c3cccc(F)c3)CC2)c(F)c1,–,"inconclusive: 13.1 µM [inhibitor, single point]"
CCN(C(=O)COC(=O)CNC(=O)c1ccc2ccccc2c1)C1CCS(=O)(=O)C1 (stereo not drawn),inactive: 30.9%,–
Cc1c(C(=O)Nc2ccccc2)sc2nc[nH]c(=O)c12,–,"inconclusive: 18.5 µM [inhibitor, single point]"
COc1ccc(CCc2nnc(CCC(=O)NCC3CCCO3)o2)cc1 (stereo not drawn),inactive: -17.3%,–
Cc1ccc(N2C(=O)C3C4CC(=O)C(c5ccccc54)C3C2=O)cc1 (stereo not drawn),inactive: 58.7%,–
CCOC(=O)N1CCC(NC(=O)c2ccc(Cl)cc2)CC1,inactive: 11.9%,–
COC(=O)CSc1nc(C)cc(Oc2ccccc2)n1,–,"inconclusive: 7.38 µM [inhibitor, partial curve]"
CCCCCCCCCCCCCCCCn1cc[n+](C)c1,–,active: 2.08 µM
Cc1ccc(CN(Cc2cc3cc(C)ccc3[nH]c2=O)C(=O)N2CCOCC2)cc1,–,"inconclusive: 10.4 µM [inhibitor, single point]"
CCOc1ccc(C(=O)OCC(=O)N(Cc2ccccc2)Cc2ccccc2)cc1OC,–,"inconclusive: 6.57 µM [inhibitor, partial curve, poor fit]"
COc1ccc(/C=C2\SC(=S)N(CC(=O)OCC(=O)Nc3cc(Cl)cc(Cl)c3)C2=O)cc1,inactive: 21.7%,–
CCCC[n+]1c(C)sc2cc(OC)ccc21,inactive: 24.5%,–
CC(C)N(C(=O)CN1CCC(c2nc3ccccc3[nH]2)CC1)C(C)C,inactive: -14.8%,–
O=C(Cc1ccc(-n2cccc2)cc1)N1CCN(c2ccccc2F)CC1,–,active: 11.7 µM
Cc1ccc(C(=O)C(C)OC(=O)Cn2cnc3c2c(=O)n(C)c(=O)n3C)cc1 (stereo not drawn),inactive: 11.8%,–

# Part of the list above, with bars between the fields.
Structure (SMILES) | activity change, negative = inhibition | Potency
CCOC(=O)C1=C(C)N(c2ccccc2)C(=O)/C1=C\c1ccc(O)c(OC)c1 | – | inconclusive: 2.08 µM [inhibitor, full curve, poor fit]
Cc1ccc(C)c(S(=O)(=O)N2CCN(C(=O)CCNS(=O)(=O)c3ccc(C)c(C)c3)CC2)c1 | – | inconclusive: 18.5 µM [inhibitor, single point]

# Further entries follow.

Structure (SMILES),"activity change, negative = inhibition",Potency
COc1ccc(C2C(C(=O)N3CCOCC3)=C(C)NC3=C2C(=O)CC(C)(C)C3)c(OC)c1 (stereo not drawn),–,"inconclusive: 11.7 µM [inhibitor, partial curve, poor fit]"
CNC(=O)c1c(NC(=O)c2ccc(S(=O)(=O)N3CCCC3)cc2)sc2c1CCN(C(C)C)C2,–,"inconclusive: 18.5 µM [inhibitor, single point]"
CCCCN(CC)C(=O)c1ccc2c(c1)OCO2,inactive: 0%,–
Cc1ccc(NC(=S)N(Cc2ccco2)C2CCN(C(C)C)CC2)cc1,–,"inconclusive: 16.5 µM [inhibitor, single point]"
Cc1ccccc1-n1c(SCc2ccccn2)nc2n[nH]c(C)c2c1=N,inactive: -1.17%,–
COc1ccc(-c2cc(OC)c3c(C)oc(C)c3c(=O)c2)cc1OC,inactive: 28.9%,–
O=C(Cn1cnc2c(cnn2-c2ccc(F)cc2)c1=O)OCc1ccccc1,inactive: -18.6%,–
COc1cc(/C=N/NC(=O)CCN2CCCCC2)ccc1O,–,"inconclusive: 10.4 µM [inhibitor, partial curve, poor fit]"
CCc1ccc(-n2c(=S)sc3c(=O)n(-c4ccccc4)c(SCC(=O)O)nc32)cc1,–,"inconclusive: 1.04 µM [inhibitor, full curve]"
Cn1cnc2c1c(=O)n(Cc1ccccc1C#N)c(=O)n2C,–,"inconclusive: 2.08 µM [inhibitor, partial curve, poor fit]"
COc1cc(Cl)ccc1OCc1cc(C(=O)N[C@H]2CCCCNC2=O)no1,inactive: 19%,–
Cc1cc(C)n(-c2ccc(S(=O)(=O)N3CCCC3)cc2[N+](=O)[O-])n1,inactive: -15.6%,–
COC(=O)c1c(NC(NC(=O)C(C)(C)C)C(Cl)(Cl)Cl)sc2c1CCC2 (stereo not drawn),–,"inconclusive: 9.28 µM [inhibitor, single point]"
COC(=O)c1ccccc1NC(=O)COC(=O)c1ccccc1N=Nc1ccc(N(C)C)cc1,–,active: 9.28 µM
O=C(c1cccc(F)c1)N1CCN(c2ccc([N+](=O)[O-])c3cccnc23)CC1,–,"inconclusive: 4.15 µM [inhibitor, single point]"
COc1cccc2sc(NN)nc12,–,"inconclusive: 4.15 µM [inhibitor, single point]"
N#C/C(=C\c1c(Cl)cccc1Cl)c1nc2ccccc2o1,–,"inconclusive: 18.5 µM [inhibitor, single point]"
Cc1ccc(C)c(N=Cc2ccc(-c3ccc([N+](=O)[O-])cc3)o2)c1,–,"inconclusive: 9.28 µM [inhibitor, partial curve, poor fit]"
CC(C)Nc1nc(Cl)nc(NC2CCCCC2)n1,–,"inconclusive: 18.5 µM [inhibitor, single point]"
COc1ccccc1NC(=O)CSc1nc2ccccc2cc1Cc1ccccc1,–,"inconclusive: 7.38 µM [inhibitor, partial curve]"
CCCCn1c(N)c(N(CC(C)C)C(=O)c2cccc(S(=O)(=O)N3CCCCCC3)c2)c(=O)[nH]c1=O,–,"inconclusive: 16.5 µM [inhibitor, single point]"
CCc1ccccc1NC1=CC(=O)CC(C)(C)C1,inactive: 0.889%,–
CCN(CC)S(=O)(=O)c1ccc(NC(=O)C2c3ccccc3Oc3ccccc32)cc1,–,"inconclusive: 2.94 µM [inhibitor, full curve, poor fit]"
